According to PubChem BioAssay AID2685 (National Center for Advancing Translational Sciences (NCATS), 2010):
In all, about 320,000 compounds went through this assay and about 2,100 (0.66%) were called active. Inconclusive results, whose numbers are uncertain, are shown with a selection of clear calls. Calls come from the whole dose curve; as a rule, active = well fitted inhibition curve with a large enough effect in the signal ratio, with a control signal flat (not every such curve was filed as active); inconclusive = small, poorly fitted or top-dose-only effect, or effect the other way, or a change in a side signal; inactive = flat fitted curve, though single readings scatter; the % refers to the signal ratio. Where the call is inconclusive, the potency comes from a doubtful curve fit.

Experiment: qHTS Assay for Lipid Storage Modulators in Drosophila S3 Cells
Settings: BODIPY lipid droplet fluorescence, 18-24 h, cells fed with added oleic acid; lipid storage change, negative = inhibition: at 46.1 µM (top of the series) unless noted
Method in brief: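 Drosophila S3 cells loaded with oleic acid (400 uM, as added) and compounds at several concentrations; lipid droplets imaged by 488-nm laser-scanning cytometry, 500–530 nm intensity and object ratio to cell channel. Percent activity normalized to 20 uM Triacsin C.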
% is set by controls: 0 for no effect and ±100 for the full control effect; potency is the fitted concentration of half-maximal effect.

| Structure (SMILES) | lipid storage change, negative = inhibition | Potency | outcome |
| --- | --- | --- | --- |
| COc1cccc(OCC(O)CN(CCO)Cc2ccccc2)c1 (stereo unspecified) | inconclusive: -6.81% |  |  |
| Cc1cc(=O)[nH]c(SCC(N)=O)c1C#N |  | active: 23.1 µM |  |
| O=C(CNC(=O)c1sc2ccccc2c1Cl)OCc1ccccc1 |  | inconclusive: 25.9 µM [falling, single point] |  |
| CN(Cc1ccccc1)c1ccc(S(=O)(=O)N2CCOCC2)cn1 | inconclusive: 5.75% |  |  |
| CC1(C)Cc2c(cnn2-c2ccc(F)cc2)C(NC(=O)C2=NNC(=O)CC2)C1 (stereo unspecified) |  |  | inactive [at 46.1 µM] |
| Cc1cc(C)c(S(=O)(=O)N2CCCC(C(=O)NCc3cccnc3)C2)c(C)c1 (stereo unspecified) | inconclusive: -60% |  |  |
| CC(C)(C)CN1CCN(CC#Cc2ccccc2)CC1CCO (stereo unspecified) |  | inconclusive: 6.51 µM [falling, single point] |  |
| CCCC(=O)Nc1ccc(C(=O)Nc2cc(C(F)(F)F)ccc2Cl)cc1 |  | inconclusive: 29.1 µM [falling, single point] |  |
| Cc1ccc(Cl)cc1Nc1nc(-c2cccnc2)cs1 | inconclusive: -62.2% |  |  |
| O=C(c1ccco1)C(O)c1ccco1 (stereo unspecified) | inconclusive: -14.1% |  |  |
| O=C(NCCCN1CCOCC1)c1sc2cc([N+](=O)[O-])ccc2c1Cl | inconclusive: -9.82% |  |  |
| Cn1nc(-c2ccccc2)c(N2CCCCC2)cc1=O | inconclusive: -21.6% [at 9.22 µM] |  |  |
| Cc1c(C(=O)c2ccccc2)c2ccccn2c1CCc1ccccn1 | inconclusive: 103% |  |  |
| COCC(C)NC(=O)c1ccc2nc(-c3ccccc3)c(-c3ccccc3)nc2c1 (stereo unspecified) | inconclusive: -44.7% |  |  |
| O=C(CC1C(=O)NCCN1Cc1ccc(-c2ccccc2)cc1)NCCOc1cccnc1 (stereo unspecified) | inactive: 3.12% |  |  |
| O=C(Nc1cccc(Cl)c1)C1C2C=CC3(O2)C1C(=O)N(CCN1CCCCC1)C3C(=O)NC1CCCCC1 (stereo unspecified) |  | inconclusive: 2.31 µM [falling, partial curve, poor fit] |  |
| COc1ccc(CN2CCC(Oc3ccc(C(=O)N4CCCCC4)cc3)CC2)cc1C |  | inconclusive: 29.1 µM [falling, single point] |  |
| Cc1oncc1C(=O)N1CCCC(CO)(Cc2ccc(F)cc2F)C1 (stereo unspecified) | inconclusive: 36.2% |  |  |
| Cc1ccc(SCc2nc(-c3ccncc3)no2)cc1 |  | inconclusive: 25.9 µM [activator, partial curve, poor fit] |  |
| Cc1[nH]c(=O)[nH]c(=O)c1/C=N/NC(=O)[C@@H](N)CC(C)C | inconclusive: -5.9% |  |  |
| CCOc1ncccc1C(=O)NCCCSc1ccccc1 | inconclusive: 26.5% |  |  |
| CCc1ccc2[nH]c(=O)c(CN(CCCO)C(=O)NCc3ccccc3)cc2c1 | inconclusive: 172% |  |  |
| COc1ccc(C2CC2/C(C)=N/OC(=O)c2cccs2)cc1 (stereo unspecified) |  |  | inactive [at 46.1 µM] |
| Cc1ccccc1NC(=O)C(NS(=O)(=O)c1ccc2c(c1)c(=O)n(C)c(=O)n2C)c1ccccc1 (stereo unspecified) |  | inconclusive: 0.0291 µM [activator, full curve, poor fit] |  |
| CN(C)CCCNc1c2c(nc3ccccc13)CCC2 | inconclusive: -15.2% |  |  |
| CC(C)CCOc1cccc(OCC(=O)N(C)C2CCS(=O)(=O)C2)c1 (stereo unspecified) | inconclusive: 15.1% |  |  |

| Structure (SMILES) | lipid storage change, negative = inhibition | Potency | outcome |
| --- | --- | --- | --- |
| CCN(C(=O)COC(=O)/C=C/c1c(C)nn(Cc2ccc(C)cc2)c1C)C1CCS(=O)(=O)C1 (stereo unspecified) | inconclusive: 9.74% |  |  |
| O=C(Nc1c2n(c(=S)n(-c3ccccc3)c1=O)CCCCC2)c1ccccc1 |  | inconclusive: 0.0731 µM [activator, full curve] |  |
| O=C(NCc1ccc2c(c1)OCO2)c1cccc(S(=O)(=O)N2CCCC2)c1 |  | inconclusive: 29.1 µM [activator, single point] |  |
| O=c1c(Cc2ccccc2)c(O)ccn1Cc1ccc2c(c1)OCO2 | inconclusive: -57% |  |  |
| O=C(NNC(=O)c1cc2ccccc2cc1O)Nc1ccc(Br)cc1 | inconclusive: -10.6% |  |  |
| COc1ccc(NC(=O)CN(C)C(=O)CNC(=O)c2cccs2)cc1 |  | inconclusive: 29.1 µM [falling, single point] |  |
| COc1ccccc1CN(C)C(=O)c1cc(-c2cccs2)nc2ccccc12 |  | inconclusive: 6.51 µM [activator, single point] |  |
| COc1ccc(C2CC(c3ccccc3)=NN2c2ccc(N)cc2)cc1 (stereo unspecified) | inconclusive: 23.7% |  |  |
| COc1ccc(N(CC(=O)Nc2cccc3ccccc23)S(C)(=O)=O)c(OC)c1 |  | inconclusive: 29.1 µM [activator, single point] |  |
| COc1cccc(N2C(=O)CC(N3CCC(c4nc5ccccc5[nH]4)CC3)C2=O)c1 (stereo unspecified) |  | inconclusive: 0.731 µM [falling, partial curve, poor fit] |  |
| Cc1ccc(COn2c(-c3ccc(Cl)cc3Cl)nc3ncccc32)cc1 | inconclusive: 49.5% |  |  |
| CC1CCCN(C(=O)COC(=O)CNC(=O)c2ccc(Br)cc2)C1 (stereo unspecified) | inconclusive: -2.06% |  |  |
| Cc1ccc2nc(COc3ccc(Cl)cc3)cc(=O)n2c1 | inconclusive: -1.83% |  |  |
| COCCSc1nnc(NC(=O)COC)s1 |  | active: 25.9 µM |  |
| COc1ccc(C2=NN(C(=O)c3cccc([N+](=O)[O-])c3)C(c3cccc([N+](=O)[O-])c3)C2)cc1 (stereo unspecified) |  | inconclusive: 0.92 µM [rising, partial curve] |  |
| Cc1ccc(O)c(C(=O)c2cnn(C(=O)c3cccc(S(=O)(=O)N(C)C)c3)c2)c1 | inconclusive: 38.6% [activator] [at 0.0737 µM] |  |  |
| Cc1ccc(NC(=O)OCc2cn(-c3ccc(Cl)cc3)nn2)cc1 | inconclusive: -45.1% |  |  |
| O=C(O)C1C2CCC(O2)C1C(=O)Nc1ccccc1Br (stereo unspecified) |  | inconclusive: 23.1 µM [activator, single point] |  |
| COc1cc2[nH]c(=S)nc(NCc3ccccn3)c2cc1OC | inconclusive: -0.0385% |  |  |
| O=C(c1ccc(F)cc1)c1cnc(Nc2ccccc2)s1 | inconclusive: 15.1% |  |  |
| CC(NC(=O)[C@H](C)N1C(=O)N2CCc3c([nH]c4ccccc34)[C@@]2(C)C1=O)c1ccccc1 (stereo partly specified) | inconclusive: -41.5% |  |  |
| CCOC(=O)N1CCC(NC(=O)C2CCCN(Cc3nc(-c4ccc(CC)cc4)oc3C)C2)CC1 (stereo unspecified) | inconclusive: -60% |  |  |
| CCc1ccc(NC2CC(=O)N(CCc3ccc(OC)c(OC)c3)C2=O)cc1 (stereo unspecified) | inconclusive: 16% |  |  |
| CCOC(=O)C1C(=O)NCC2CCCC21 (stereo unspecified) | inconclusive: -15.6% |  |  |
| C=CCSC1=N/C(=C/c2ccsc2)C(=O)N1c1ccccc1 | inconclusive: 30.4% |  |  |
| CCOc1ccc(C(O)(c2ccccc2OC)C(CN2CCCC2)c2ccccc2)cc1 (stereo unspecified) |  | inconclusive: 29.1 µM [activator, single point] |  |

An excerpt of these results, with each value named.
O=C(Nc1c2n(c(=S)n(-c3ccccc3)c1=O)CCCCC2)c1ccccc1
  Potency: inconclusive: 0.0731 µM [activator, full curve]
O=C(NCc1ccc2c(c1)OCO2)c1cccc(S(=O)(=O)N2CCCC2)c1
  Potency: inconclusive: 29.1 µM [activator, single point]
COc1ccc(NC(=O)CN(C)C(=O)CNC(=O)c2cccs2)cc1
  Potency: inconclusive: 29.1 µM [falling, single point]
Cc1ccc(NC(=O)OCc2cn(-c3ccc(Cl)cc3)nn2)cc1
  lipid storage change, negative = inhibition: inconclusive: -45.1%

(continued)

| Structure (SMILES) | lipid storage change, negative = inhibition | Potency | outcome |
| --- | --- | --- | --- |
| Cc1ccc(C)c(OCC(=O)Nc2ccc(N3CCOCC3)cc2N2CCOCC2)c1 | inconclusive: 22.9% |  |  |
| CCOc1cccc2c1OC1(C)CC2NC(=O)N1c1cccc(Cl)c1 (stereo unspecified) | inconclusive: 37.1% |  |  |
| CCc1nnc(NC(=O)CSc2ccc(-c3nc4ccc(C)cc4[nH]3)cn2)s1 |  | inconclusive: 29.1 µM [falling, single point] |  |
| CCOC(=O)c1sc2nc3n(c(=O)c2c1C)CCC(C)CC3 (stereo unspecified) | inconclusive: 40.1% |  |  |
| CCC(=O)Nc1ccc2c(c1)ncn2C |  | inconclusive: 4.61 µM [falling, full curve, poor fit] |  |
| O=C(NCc1nnc(SCC(=O)N2CCCCC2)o1)c1c(F)cccc1F | inconclusive: -34.6% [at 0.00295 µM] |  |  |
| CCN(Cc1ccccc1)C(=O)CS(=O)(=O)c1ccccc1 | inactive: -5.16% |  |  |
| COc1ccc(NC(=O)c2cn(C)c(=O)c3cc(OC)c(OC)cc23)c(OC)c1 | inconclusive: 7.25% |  |  |
| Cc1cccc(Nc2nc(N)nc(CN3CCN(Cc4ccc5c(c4)OCO5)CC3)n2)c1 | inconclusive: 7.92% |  |  |
| CCc1ccc(-c2cc(C)no2)cc1S(=O)(=O)Nc1cc(C)on1 | inconclusive: 49.3% |  |  |
| O=C(COC(=O)C1CC2C=CC1C2)Nc1ccccc1 (stereo unspecified) |  | inconclusive: 13 µM [activator, partial curve, poor fit] |  |
| CC1CC(C)CN(C(=O)COC(=O)c2ccc([N+](=O)[O-])o2)C1 (stereo unspecified) | inconclusive: 10.3% |  |  |
| COc1ccc(Nc2nc(N)c(C(=O)c3ccc(OC)cc3)s2)cc1 | inconclusive: 33.8% |  |  |
| CC1Cc2ccccc2N1C(=O)C1CCN(S(=O)(=O)Cc2ccccc2)CC1 (stereo unspecified) | inconclusive: 38% |  |  |
| Cc1ccc2cccc(OCC(=O)NCc3ccco3)c2n1 | inconclusive: -12.1% |  |  |
| CNC(=S)N(C)[C@H]1c2c(ccc3ccccc23)OC[C@H]1CO |  | inconclusive: 0.206 µM [falling, full curve, poor fit] |  |
| COc1cccc(NC(=O)c2nnn(CCc3ccccc3)c2N)c1 | inconclusive: -15.2% |  |  |
| CCC(NC(=O)CCC(=O)N1CCN(S(=O)(=O)c2ccc(C)cc2)CC1)c1ccc(C)cc1 (stereo unspecified) |  | inconclusive: 29.1 µM [falling, single point] |  |
| CCC(c1nnc(SCC(=O)Nc2ccc(N3CCOCC3)cc2)n1Cc1ccccc1)N(C)C (stereo unspecified) |  |  | inactive [at 46.1 µM] |
| C/C(=N\O)C(C)(C)Nc1ccc(Cl)cc1 | inconclusive: -11.4% |  |  |
| CCCNC(=O)c1ccccc1NC(=O)CN(c1ccccc1OCC)S(C)(=O)=O |  | inconclusive: 0.0326 µM [activator, full curve, poor fit] |  |
| Cc1ccc(NCc2nnc(SCc3ccc(C#N)cc3)n2Cc2ccco2)c(C)c1 |  | inconclusive: 18.4 µM [activator, partial curve, poor fit] |  |
| O=C(O)c1ccc2c(c1)C(=O)N(N1C(=O)c3ccccc3C1=O)C2=O |  | inconclusive: 6.51 µM [cytotoxic, single point] |  |
| O=C(CN1CCCCC1)Nc1cc(S(=O)(=O)N2CCOCC2)ccc1N1CCCC1 |  | inconclusive: 9.2 µM [activator, partial curve] |  |
